Mtb growth Cornell: 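Whole-cell assay for inhibitors of Mycobacterium tuberculosis growth, labelled Cornell in the record; the read-out is not stated. The concentration is filed as 10 mM, unlikely as a test dose, so the dose is not known. The record gives no direction; compounds strong in two other growth screens of this library score well above the rest, so higher reads as stronger inhibition. Size under these conditions: about 53,000 compounds, about 900 of them at 50% or above in at least one test.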
Mtb heat-shock: 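Assay on Mycobacterium tuberculosis, filed only as a heat shock assay from Cornell; the read-out is not stated. The concentration is filed as 10 mM, unlikely as a test dose, so the dose is not known. The record gives no direction; compounds that gave an IC50 in retests scored well above the rest, so higher reads as stronger inhibition. Size under these conditions: about 69,000 compounds, about 930 of them at 50% or above in at least one test.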

Results are given as percent effect. How 0% and 100% were set is not recorded. Most values in the screen are low, and negative values occur. This is an unselected part of the compounds tested.

With CC(c1ccco1)N(C)Cc1nc2c(cnn2C)c(=O)[nH]1 (centres unmarked) the screen gave Mtb growth Cornell: -0.4738%; Mtb heat-shock: 4.187%. Result for COc1ccc(CC2CN(C3CCSCC3)CCO2)cc1 (centres unmarked) was Mtb growth Cornell: 12.77%; Mtb heat-shock: -13.29%. CCOc1ccc(NC(=O)N(CCN(C)C)C(C)c2ccncc2)cc1 (centres unmarked) gave Mtb growth Cornell: 20.9%; Mtb heat-shock: -15.79%. CCc1nnc2n1CCN(CCC(=O)Nc1sccc1C#N)C2 read Mtb heat-shock: 0.593%. With COC(=O)CCN(CC1CCOC1)C1CC1 (centres unmarked) the screen gave Mtb growth Cornell: -57.63%; Mtb heat-shock: 8.452%. O=C(C[S+]([O-])Cc1ccc(F)cc1)N1CCc2sccc2C1 (centres unmarked) read Mtb heat-shock: -3.602%. Cc1cnn(C2CN(CC(=O)NCC(C)C)C2)c1 read Mtb growth Cornell: -114.8%; Mtb heat-shock: 19.61%. Cc1nnc(N2CCCC3(CN(Cc4cnn(C)c4)CCO3)C2)o1.O=C(O)C(F)(F)F.O=C(O)C(F)(F)F (centres unmarked) gave Mtb growth Cornell: 24.7%; Mtb heat-shock: -20.31%.

Result for Cc1ccc(-c2cc(C(=O)N(C)Cc3noc4c3CCCC4)[nH]n2)o1 was Mtb growth Cornell: -3.451%; Mtb heat-shock: -28.59%. Cc1cc(N(C)CCn2ccnc2C)n2nccc2n1 gave Mtb heat-shock: 12.76%. With Cc1nc(O)cc(CCNC(=O)c2ccc(CN3CCCCC3)cc2)n1 the screen gave Mtb growth Cornell: 8.215%; Mtb heat-shock: -2.83%. Result for CNC(=O)c1coc(-c2csc(C)n2)c1 was Mtb growth Cornell: 11.85%; Mtb heat-shock: 3.862%. With CCc1nc(-c2ccc(NC(=O)N3CCCC3)cc2)no1 the screen gave Mtb growth Cornell: 30.78%; Mtb heat-shock: 19.55%. With CCOCCNC(=O)c1cccc(S(=O)(=O)NC[C@@H]2C[C@H](F)CN2)c1 the screen gave Mtb heat-shock: -2.782%. For Cc1ccoc1C(=O)NC1CCN(Cc2cccc3c2OCCO3)CC1 the result was Mtb heat-shock: -13.29%. Result for CC(C)c1cc(C(=O)N2CCc3nc(C4CCCN4)ncc3C2)cs1.Cl (centres unmarked) was Mtb growth Cornell: -14.33%; Mtb heat-shock: 0.5974%.

CCn1c(C)nnc1SCCn1cc(-c2ncc[nH]2)nn1 read Mtb growth Cornell: -54.43%; Mtb heat-shock: 18.55%. NC(=O)C1CCN(C(=O)NC2CCc3cc(Cl)ccc32)CC1 (centres unmarked) gave Mtb growth Cornell: 13.48%; Mtb heat-shock: 6.276%. With CC(C)N1CCn2c(COCC3CCOCC3)cnc2C1C.O=C(O)C(F)(F)F (centres unmarked) the screen gave Mtb growth Cornell: 1.65%; Mtb heat-shock: -4.343%. For CC(C)Nc1ncnc2c1CCN(C(=O)CN(C)C)CC2 the result was Mtb growth Cornell: -68.22%; Mtb heat-shock: -30.49%. Result for [H][C@]12CN(CC(C)(C)C)CCN1C(=O)N(C1CCCCC1)C2 was Mtb growth Cornell: 9.793%; Mtb heat-shock: -18.67%. Result for CN(Cc1cn(C2CCNCC2)nn1)CC1CCCO1 (centres unmarked) was Mtb growth Cornell: -30.88%; Mtb heat-shock: -17.05%. For CNC(=O)[C@@H]1CN(C(=O)C2CCC2)C[C@H]1c1ccnc(N2CCCC2)n1.Cl the result was Mtb growth Cornell: 54.39%; Mtb heat-shock: -5.872%. For COCC(=O)N1CCCn2c(CN3CCCC3=O)nnc2C1 the result was Mtb growth Cornell: -65.64%; Mtb heat-shock: -17.34%.

Result for CCSc1cc(C(=O)NCC(C)(C)N(C)C)ccn1 was Mtb growth Cornell: -7.433%; Mtb heat-shock: -23.47%.

Repeated from the top, 3 entries:

Compound	Mtb growth Cornell	Mtb heat-shock
CC(c1ccco1)N(C)Cc1nc2c(cnn2C)c(=O)[nH]1 (centres unmarked)	-0.4738%	4.187%
COc1ccc(CC2CN(C3CCSCC3)CCO2)cc1 (centres unmarked)	12.77%	-13.29%
CCOc1ccc(NC(=O)N(CCN(C)C)C(C)c2ccncc2)cc1 (centres unmarked)	20.9%	-15.79%

Source: ChEMBL document CHEMBL3988442, “University of Dundee, Small-Polar-MMV Screening Library” (2021).